No constants are given. Whether binding was seen depends on the method and setting. In cells and extracts the contact can be indirect. Sequences can lack the tags named with a protein.

Protein sequences, listed by entry. Tags and fused reporters are not part of them. Residues count along the entry.
UniProt Q8NE86, residues 51-351: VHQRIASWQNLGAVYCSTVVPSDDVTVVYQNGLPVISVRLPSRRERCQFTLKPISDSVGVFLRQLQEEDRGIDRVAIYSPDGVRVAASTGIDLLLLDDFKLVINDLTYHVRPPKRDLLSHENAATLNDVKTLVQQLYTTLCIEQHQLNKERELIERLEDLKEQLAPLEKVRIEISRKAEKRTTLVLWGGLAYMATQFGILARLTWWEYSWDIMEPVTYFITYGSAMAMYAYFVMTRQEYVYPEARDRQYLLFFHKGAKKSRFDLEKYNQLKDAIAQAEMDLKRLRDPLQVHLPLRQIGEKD
UniProt Q9BPX6, residues 34-476: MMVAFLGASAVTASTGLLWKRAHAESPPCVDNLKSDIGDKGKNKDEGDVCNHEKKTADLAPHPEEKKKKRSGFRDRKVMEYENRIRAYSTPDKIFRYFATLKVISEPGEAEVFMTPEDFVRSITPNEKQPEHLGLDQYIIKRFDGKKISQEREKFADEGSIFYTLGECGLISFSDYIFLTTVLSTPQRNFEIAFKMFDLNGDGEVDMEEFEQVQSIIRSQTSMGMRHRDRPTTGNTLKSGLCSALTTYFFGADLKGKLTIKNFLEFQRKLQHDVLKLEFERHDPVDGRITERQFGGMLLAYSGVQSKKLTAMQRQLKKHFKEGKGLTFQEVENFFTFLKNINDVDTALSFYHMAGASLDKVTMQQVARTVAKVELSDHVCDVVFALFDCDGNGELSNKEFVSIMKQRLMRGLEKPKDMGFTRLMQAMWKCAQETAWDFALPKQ

This experiment has as its target T1, HA-tagged Mrs2 (Mitochondrial RNA splicing 2) (human) (UniProt Q9HD23).
T1 sequence: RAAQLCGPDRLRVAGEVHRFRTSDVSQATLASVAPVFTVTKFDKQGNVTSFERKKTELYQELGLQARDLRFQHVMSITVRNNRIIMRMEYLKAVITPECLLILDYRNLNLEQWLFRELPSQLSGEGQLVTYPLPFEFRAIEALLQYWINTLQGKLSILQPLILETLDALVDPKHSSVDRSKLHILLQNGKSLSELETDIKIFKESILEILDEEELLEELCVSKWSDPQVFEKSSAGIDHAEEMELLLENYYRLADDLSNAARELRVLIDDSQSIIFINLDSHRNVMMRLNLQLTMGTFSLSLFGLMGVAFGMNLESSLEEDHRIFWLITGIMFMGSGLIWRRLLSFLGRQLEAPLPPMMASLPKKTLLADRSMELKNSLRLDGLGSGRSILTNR
Kind of experiment: co-IP; HEK293 co-transfected with HA-tagged Mrs2 and Flag-tagged MCU, MICU1, MCUR1 or EMRE; RIPA lysate; immunoprecipitation with HA antibody; blot with anti-Flag.

For “Flag-tagged MCU (Mitochondrial Calcium Uniporter) (from UniProt Q8NE86 51-351)”, the binding entry is reported as “no binding”. For “Flag-tagged MICU1 (from UniProt Q9BPX6 34-476)”, the binding entry is recorded as “no binding”.

The record behind these values is publication PMC10371168.
